Assay results taken from paper PMC9827685.
These are yes or no findings as the source states them, for the method shown. In cells and extracts the contact can be indirect. Some entries that bind do so weakly or less than the wild type.

By UniProt entry, the sequences of proteins in these tests, tags left out. Residues count along the entry.
UniProt P23443: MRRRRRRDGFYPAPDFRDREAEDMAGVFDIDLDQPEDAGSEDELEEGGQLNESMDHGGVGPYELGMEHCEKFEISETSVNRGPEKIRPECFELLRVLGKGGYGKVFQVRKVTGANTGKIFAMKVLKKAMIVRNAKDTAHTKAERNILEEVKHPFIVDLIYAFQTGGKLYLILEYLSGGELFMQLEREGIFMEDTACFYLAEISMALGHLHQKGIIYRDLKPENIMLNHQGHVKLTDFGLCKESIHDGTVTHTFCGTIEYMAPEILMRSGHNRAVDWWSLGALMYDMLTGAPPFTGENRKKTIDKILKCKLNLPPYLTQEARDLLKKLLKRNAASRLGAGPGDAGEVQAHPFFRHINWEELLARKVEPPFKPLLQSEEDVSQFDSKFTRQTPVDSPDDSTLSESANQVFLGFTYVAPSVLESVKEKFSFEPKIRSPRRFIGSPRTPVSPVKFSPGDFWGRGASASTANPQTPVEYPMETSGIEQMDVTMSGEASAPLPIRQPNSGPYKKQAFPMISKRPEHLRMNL
UniProt P19490, residues 19-907: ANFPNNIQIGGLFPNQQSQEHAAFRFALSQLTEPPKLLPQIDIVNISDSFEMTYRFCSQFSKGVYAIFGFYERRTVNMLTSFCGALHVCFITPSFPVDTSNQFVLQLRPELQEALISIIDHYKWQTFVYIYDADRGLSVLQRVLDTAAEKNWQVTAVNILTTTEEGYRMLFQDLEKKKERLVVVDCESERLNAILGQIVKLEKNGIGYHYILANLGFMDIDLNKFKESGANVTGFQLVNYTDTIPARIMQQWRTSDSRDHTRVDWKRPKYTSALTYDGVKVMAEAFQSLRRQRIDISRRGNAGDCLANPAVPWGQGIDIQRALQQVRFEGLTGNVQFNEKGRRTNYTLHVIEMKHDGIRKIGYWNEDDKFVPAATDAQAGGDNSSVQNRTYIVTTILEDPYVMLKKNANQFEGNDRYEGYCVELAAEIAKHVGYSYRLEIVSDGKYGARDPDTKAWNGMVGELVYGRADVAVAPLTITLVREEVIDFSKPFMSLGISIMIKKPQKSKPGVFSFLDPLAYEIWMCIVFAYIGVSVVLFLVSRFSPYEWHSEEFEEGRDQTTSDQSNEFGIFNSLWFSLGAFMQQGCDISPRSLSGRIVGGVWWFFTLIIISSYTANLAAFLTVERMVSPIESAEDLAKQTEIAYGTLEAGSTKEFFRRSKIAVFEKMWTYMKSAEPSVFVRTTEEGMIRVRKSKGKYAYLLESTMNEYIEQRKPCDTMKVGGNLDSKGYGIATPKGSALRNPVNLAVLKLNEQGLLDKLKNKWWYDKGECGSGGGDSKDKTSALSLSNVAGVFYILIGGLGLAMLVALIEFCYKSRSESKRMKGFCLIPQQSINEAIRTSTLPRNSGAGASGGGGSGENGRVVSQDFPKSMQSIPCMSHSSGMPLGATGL
UniProt P24588: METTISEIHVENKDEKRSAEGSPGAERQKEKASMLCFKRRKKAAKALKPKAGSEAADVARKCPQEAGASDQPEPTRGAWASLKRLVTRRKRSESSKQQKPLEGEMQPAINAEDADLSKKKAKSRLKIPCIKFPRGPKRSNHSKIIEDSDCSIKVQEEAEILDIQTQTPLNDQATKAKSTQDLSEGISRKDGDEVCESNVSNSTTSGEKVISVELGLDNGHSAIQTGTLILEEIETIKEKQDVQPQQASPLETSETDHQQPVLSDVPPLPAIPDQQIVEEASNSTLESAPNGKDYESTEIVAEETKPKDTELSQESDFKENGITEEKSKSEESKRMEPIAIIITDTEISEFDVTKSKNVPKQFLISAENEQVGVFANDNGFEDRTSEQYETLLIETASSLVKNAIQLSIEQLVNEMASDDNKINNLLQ
UniProt Q9Z2W9, residues 23-888: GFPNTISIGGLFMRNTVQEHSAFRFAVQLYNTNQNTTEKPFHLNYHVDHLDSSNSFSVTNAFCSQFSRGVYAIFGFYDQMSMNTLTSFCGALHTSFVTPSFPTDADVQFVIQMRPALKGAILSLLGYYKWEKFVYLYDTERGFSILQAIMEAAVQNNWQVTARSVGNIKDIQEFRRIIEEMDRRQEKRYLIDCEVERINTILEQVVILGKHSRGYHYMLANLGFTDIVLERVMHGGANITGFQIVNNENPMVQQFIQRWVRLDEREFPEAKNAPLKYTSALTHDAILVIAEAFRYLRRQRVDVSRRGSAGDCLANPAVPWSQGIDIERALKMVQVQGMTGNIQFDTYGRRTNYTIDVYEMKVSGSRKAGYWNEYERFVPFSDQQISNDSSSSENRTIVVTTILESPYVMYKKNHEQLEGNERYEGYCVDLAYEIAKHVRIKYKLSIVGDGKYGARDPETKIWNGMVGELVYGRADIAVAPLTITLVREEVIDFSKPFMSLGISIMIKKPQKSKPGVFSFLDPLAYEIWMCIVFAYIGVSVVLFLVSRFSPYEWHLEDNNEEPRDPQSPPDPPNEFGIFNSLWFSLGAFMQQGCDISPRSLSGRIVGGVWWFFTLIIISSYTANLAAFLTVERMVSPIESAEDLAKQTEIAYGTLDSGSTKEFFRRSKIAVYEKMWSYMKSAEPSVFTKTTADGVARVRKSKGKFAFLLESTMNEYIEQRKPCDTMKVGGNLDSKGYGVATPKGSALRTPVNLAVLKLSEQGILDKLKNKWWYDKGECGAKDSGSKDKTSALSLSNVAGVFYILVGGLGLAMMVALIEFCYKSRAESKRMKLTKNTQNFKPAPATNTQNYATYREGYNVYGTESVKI
UniProt P19491, residues 22-883: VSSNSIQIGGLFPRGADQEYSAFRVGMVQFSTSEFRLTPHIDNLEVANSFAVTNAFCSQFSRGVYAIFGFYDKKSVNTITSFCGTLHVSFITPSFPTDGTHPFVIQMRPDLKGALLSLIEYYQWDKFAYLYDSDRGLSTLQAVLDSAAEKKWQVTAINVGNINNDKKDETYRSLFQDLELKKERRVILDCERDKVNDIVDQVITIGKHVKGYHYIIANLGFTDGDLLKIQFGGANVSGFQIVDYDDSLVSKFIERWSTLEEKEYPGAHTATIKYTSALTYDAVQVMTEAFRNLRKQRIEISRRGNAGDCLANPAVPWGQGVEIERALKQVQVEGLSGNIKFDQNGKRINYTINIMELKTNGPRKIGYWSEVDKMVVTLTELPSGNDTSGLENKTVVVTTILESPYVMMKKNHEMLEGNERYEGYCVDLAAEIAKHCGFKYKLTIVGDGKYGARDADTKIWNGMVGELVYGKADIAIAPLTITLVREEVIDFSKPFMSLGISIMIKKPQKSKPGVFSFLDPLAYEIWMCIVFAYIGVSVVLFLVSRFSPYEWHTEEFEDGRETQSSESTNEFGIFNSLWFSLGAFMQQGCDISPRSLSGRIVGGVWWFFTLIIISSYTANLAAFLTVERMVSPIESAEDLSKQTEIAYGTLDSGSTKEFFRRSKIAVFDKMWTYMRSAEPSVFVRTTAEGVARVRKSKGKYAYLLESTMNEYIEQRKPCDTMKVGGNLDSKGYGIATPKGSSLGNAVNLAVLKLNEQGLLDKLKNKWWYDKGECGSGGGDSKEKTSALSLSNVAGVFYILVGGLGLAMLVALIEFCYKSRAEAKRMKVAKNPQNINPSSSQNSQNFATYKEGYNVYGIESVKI

Columns and labels:
[1] = molecular target: Flag-p85S6K (85-kDa isoform of ribosomal protein S6 kinase 1) (UniProt P23443); experiment: co-IP; HEK293 cells co-transfected with AKAP79 and the tagged proteins (Flag-p85S6K or Flag-p70S6K, Myc-GluA1 or Myc-GluA2); Pierce IP lysis buffer, anti-Flag or anti-c-Myc overnight at 4 °C, protein A/G agarose; for PKA with or without overexpressed p85S6K
[2] = molecular target: Myc-GluA1 (GluA1 subunit of AMPA receptor) (UniProt P19490); experiment: as above
[3] = molecular target: Flag-p85S6K (85-kDa isoform of ribosomal protein S6 kinase 1) (UniProt P23443); experiment: co-IP; extracts of HEK293 cells transfected with Flag-p85S6K (or empty vector) mixed with protein lysates from mouse hippocampus, then immunoprecipitation and immunoblot

| binding [1] | binding [2] | binding [3] | Substance |
| --- | --- | --- | --- |
| binds | binds | – | AKAP79-GFP (A-kinase anchoring protein 79) (from UniProt P24588 1-427) |
| – | – | no binding | GluA3 subunit of AMPA receptor, endogenous in mouse hippocampus (from UniProt Q9Z2W9 23-888) |
| no binding | – | – | Myc-GluA2 (GluA2 subunit of AMPA receptor) (from UniProt P19491 22-883) |
